This is one part of the list. Most values lie at the level of the controls, where differences are scatter.

Protein sequences, listed by entry. Tags and fused reporters are not part of them. Lines headed by an entry give the natural chain unless they say otherwise; changes in a name come on top.
UniProt Q925F4: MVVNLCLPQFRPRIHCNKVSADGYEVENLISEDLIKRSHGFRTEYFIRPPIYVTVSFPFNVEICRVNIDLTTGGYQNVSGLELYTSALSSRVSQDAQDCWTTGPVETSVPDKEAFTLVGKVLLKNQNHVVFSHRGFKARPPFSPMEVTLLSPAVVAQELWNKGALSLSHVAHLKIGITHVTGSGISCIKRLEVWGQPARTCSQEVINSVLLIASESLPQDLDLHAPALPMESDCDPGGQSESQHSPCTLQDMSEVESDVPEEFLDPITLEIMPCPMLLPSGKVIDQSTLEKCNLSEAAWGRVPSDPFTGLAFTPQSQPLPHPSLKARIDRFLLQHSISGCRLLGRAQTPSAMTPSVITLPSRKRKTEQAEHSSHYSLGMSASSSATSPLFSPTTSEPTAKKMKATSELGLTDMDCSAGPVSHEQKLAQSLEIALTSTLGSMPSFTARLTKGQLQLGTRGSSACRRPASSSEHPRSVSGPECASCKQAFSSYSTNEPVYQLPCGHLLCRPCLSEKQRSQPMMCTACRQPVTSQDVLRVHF
UniProt Q922V4: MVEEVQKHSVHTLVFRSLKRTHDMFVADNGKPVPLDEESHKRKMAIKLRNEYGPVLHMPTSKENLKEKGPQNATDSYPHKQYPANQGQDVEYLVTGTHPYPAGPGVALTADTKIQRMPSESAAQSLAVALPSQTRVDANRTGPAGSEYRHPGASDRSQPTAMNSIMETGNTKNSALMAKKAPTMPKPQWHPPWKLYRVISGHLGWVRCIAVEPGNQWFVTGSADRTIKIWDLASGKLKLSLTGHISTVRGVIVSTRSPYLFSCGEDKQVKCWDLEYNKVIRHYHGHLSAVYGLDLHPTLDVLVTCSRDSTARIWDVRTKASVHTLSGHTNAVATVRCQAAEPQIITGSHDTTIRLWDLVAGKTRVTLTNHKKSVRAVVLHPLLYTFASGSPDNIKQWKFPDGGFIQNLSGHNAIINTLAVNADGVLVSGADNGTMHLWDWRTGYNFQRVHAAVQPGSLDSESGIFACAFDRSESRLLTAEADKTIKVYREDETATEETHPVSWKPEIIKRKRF
UniProt Q99JN2: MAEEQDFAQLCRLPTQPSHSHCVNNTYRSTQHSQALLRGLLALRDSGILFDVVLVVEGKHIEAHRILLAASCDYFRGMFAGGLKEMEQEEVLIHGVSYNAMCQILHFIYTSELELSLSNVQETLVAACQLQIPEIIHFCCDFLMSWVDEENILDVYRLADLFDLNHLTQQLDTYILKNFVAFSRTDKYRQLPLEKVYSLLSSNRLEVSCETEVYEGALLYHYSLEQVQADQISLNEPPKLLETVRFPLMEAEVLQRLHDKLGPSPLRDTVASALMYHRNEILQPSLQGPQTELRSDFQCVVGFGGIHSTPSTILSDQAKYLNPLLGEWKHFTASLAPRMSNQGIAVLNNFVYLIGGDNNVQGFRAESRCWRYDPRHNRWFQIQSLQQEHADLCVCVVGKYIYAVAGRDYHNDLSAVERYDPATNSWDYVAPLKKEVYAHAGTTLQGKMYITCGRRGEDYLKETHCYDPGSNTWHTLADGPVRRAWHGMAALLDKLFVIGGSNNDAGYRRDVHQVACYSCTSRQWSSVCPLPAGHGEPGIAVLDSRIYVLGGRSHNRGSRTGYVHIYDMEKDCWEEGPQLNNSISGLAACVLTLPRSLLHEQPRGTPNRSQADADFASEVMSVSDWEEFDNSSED
UniProt Q921X6: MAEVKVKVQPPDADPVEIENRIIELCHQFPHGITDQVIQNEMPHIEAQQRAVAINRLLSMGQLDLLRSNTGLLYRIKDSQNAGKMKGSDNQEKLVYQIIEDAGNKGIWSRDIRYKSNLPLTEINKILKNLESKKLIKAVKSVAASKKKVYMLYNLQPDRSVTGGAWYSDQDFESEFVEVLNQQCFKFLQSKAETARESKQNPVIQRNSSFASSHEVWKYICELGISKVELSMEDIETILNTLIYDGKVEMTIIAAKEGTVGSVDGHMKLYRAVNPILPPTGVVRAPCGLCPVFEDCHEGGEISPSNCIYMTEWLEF
UniProt Q920F6: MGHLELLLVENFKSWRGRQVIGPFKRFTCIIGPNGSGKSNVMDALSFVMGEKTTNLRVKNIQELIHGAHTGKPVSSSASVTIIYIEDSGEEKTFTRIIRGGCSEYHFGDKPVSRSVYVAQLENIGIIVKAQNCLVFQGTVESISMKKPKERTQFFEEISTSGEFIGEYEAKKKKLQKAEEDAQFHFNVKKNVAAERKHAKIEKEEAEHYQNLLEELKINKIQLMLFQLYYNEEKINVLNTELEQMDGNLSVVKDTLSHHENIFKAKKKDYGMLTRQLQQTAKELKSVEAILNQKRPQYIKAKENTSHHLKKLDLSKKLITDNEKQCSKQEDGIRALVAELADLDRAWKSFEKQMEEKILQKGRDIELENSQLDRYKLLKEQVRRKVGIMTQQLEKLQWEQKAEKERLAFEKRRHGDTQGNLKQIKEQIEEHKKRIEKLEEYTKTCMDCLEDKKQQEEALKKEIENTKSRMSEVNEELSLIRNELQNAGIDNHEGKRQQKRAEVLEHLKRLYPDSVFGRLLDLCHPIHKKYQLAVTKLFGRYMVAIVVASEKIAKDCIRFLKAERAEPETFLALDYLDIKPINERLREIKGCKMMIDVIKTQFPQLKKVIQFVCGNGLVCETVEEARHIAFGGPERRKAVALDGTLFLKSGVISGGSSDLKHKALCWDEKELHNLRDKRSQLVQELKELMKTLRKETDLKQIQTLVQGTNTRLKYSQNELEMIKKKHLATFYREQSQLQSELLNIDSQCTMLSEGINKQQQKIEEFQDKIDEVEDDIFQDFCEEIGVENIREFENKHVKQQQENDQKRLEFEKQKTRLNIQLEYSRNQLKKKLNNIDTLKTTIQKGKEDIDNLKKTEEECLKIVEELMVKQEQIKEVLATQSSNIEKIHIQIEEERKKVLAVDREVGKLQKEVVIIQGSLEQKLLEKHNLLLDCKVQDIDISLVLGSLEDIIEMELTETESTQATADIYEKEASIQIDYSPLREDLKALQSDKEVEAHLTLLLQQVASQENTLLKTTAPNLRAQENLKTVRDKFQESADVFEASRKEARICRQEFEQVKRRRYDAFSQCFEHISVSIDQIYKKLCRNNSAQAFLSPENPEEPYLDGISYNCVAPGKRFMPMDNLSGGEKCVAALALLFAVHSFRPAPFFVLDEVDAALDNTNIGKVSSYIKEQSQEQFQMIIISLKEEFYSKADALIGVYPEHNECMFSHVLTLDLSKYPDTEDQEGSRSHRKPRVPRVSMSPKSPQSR
UniProt Q922M7: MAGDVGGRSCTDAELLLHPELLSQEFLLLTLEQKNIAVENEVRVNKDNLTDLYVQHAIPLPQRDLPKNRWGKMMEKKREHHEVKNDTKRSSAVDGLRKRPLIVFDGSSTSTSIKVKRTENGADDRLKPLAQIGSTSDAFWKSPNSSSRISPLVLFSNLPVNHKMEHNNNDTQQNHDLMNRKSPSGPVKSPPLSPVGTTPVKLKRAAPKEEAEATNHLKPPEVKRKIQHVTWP
UniProt Q924S8: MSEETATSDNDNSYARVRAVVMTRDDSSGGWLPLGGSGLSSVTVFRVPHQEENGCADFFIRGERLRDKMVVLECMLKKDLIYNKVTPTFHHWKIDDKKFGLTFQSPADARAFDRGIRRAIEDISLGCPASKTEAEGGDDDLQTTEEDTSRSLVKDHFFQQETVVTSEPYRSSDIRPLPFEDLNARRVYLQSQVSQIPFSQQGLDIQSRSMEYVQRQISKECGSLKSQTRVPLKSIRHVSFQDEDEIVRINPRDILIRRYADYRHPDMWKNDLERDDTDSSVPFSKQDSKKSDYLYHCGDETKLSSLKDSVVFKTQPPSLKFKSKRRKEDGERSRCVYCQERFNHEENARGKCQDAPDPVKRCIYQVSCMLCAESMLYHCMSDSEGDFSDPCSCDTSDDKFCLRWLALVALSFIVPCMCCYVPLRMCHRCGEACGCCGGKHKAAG
UniProt Q922B1: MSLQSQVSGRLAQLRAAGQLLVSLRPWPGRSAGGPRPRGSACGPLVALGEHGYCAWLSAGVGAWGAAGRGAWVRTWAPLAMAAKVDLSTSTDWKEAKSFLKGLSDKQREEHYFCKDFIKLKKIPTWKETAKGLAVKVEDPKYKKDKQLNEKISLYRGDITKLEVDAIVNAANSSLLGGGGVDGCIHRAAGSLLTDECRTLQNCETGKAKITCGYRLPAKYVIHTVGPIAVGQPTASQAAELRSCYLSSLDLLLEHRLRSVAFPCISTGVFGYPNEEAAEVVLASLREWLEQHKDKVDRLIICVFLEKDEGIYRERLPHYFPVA
UniProt Q99K51: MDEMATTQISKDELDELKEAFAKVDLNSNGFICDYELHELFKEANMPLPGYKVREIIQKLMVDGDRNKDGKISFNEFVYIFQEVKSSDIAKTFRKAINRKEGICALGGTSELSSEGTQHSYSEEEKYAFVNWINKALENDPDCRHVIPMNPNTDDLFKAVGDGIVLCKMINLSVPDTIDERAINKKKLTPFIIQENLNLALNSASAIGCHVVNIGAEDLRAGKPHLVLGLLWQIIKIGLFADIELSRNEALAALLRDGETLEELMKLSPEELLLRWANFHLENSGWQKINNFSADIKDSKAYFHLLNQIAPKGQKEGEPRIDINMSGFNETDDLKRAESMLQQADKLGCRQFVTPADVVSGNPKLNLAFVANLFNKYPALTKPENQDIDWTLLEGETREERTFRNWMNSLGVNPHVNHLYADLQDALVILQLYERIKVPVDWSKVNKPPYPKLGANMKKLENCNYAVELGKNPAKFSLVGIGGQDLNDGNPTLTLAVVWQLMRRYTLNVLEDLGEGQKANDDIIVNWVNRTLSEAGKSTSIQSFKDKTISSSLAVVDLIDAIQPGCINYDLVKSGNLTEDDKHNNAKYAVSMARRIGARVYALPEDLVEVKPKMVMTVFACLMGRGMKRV
UniProt Q99JR8, whole entry: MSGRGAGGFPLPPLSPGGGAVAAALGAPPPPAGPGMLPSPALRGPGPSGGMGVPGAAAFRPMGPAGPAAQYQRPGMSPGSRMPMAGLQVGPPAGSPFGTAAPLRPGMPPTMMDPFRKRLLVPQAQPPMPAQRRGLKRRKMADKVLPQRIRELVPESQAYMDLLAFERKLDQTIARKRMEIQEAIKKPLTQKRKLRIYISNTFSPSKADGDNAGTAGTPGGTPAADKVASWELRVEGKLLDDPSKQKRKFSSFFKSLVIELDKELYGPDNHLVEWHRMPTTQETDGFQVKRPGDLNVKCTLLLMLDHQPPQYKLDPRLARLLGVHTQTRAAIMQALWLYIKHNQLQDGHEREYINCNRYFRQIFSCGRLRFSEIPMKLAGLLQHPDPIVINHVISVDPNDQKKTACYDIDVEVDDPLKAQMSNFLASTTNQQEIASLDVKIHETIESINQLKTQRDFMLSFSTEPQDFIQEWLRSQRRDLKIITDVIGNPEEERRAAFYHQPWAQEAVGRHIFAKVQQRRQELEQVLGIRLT
UniProt Q99KS2: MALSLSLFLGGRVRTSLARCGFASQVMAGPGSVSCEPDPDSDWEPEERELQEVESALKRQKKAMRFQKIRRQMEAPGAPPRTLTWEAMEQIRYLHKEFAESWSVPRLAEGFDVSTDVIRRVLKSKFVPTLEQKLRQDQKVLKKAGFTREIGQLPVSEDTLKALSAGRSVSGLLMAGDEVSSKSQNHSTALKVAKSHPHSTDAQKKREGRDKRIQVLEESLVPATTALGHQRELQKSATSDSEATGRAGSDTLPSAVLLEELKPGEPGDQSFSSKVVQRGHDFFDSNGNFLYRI
UniProt Q99LG2: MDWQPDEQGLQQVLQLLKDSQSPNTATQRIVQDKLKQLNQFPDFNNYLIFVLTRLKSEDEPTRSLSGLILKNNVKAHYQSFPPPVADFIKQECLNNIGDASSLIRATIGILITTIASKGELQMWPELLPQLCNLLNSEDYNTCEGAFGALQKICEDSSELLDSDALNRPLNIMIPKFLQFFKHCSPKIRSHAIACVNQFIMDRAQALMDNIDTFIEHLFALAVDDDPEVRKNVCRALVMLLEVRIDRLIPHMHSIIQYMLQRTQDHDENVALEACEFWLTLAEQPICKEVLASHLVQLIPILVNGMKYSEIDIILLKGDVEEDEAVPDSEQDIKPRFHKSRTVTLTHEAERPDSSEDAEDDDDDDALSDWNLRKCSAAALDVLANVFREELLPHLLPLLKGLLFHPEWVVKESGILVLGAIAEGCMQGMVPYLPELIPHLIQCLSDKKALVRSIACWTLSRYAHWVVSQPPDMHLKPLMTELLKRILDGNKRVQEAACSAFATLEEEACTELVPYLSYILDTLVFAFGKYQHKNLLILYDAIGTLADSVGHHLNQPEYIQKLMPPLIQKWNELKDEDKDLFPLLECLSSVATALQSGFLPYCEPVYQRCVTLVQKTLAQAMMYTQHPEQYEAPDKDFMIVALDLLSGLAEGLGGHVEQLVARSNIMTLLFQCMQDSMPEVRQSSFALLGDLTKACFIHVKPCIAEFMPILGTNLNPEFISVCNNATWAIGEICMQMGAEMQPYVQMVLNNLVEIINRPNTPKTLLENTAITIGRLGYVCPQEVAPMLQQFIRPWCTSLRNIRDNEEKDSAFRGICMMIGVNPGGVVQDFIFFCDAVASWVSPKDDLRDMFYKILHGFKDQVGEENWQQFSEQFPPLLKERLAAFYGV

Compound in the test: CN[C@@H]1C[C@H]2O[C@@](C)([C@@H]1OC)n1c3ccccc3c3c4c(c5c6ccccc6n2c5c31)C(=O)NC4 [staurosporine]
The experiment in a line: log2 fold change of tryptic peptide abundance, ligand vs vehicle (limited proteolysis) (log2 ratio); higher = more trypsin-susceptible (destabilized). The settings on record: ligand concentration: 20 uM; sample: mouse liver crude lysate; replicate design: treated separately.
As for “UniProt Q921F2 (peptide sequence: FTEYETQVK, peptide start residue: 152)”, the log2 fold change was 0.183. Regarding “UniProt Q99JX4 (peptide sequence: VKNSLLSLSDT, peptide start residue: 364)”, the log2 fold change came out at 0.508. To “UniProt Q925F4 (peptide sequence: GQLQLGTR, peptide start residue: 451)” belongs -0.0706; to “UniProt Q921U8 (peptide sequence: QELEREEEALASKR, peptide start residue: 40)”, -0.518. For “UniProt Q922D8 (peptide sequence: VLLSALDR, peptide start residue: 355)”, the log2 fold change worked out at 0.205.

With “UniProt Q921C5 (peptide sequence: YHVAVAEAGELR, peptide start residue: 441)”, the log2 fold change came to 0.981. Consider “UniProt Q922F4 (peptide sequence: ISVYYNESSSK, peptide start residue: 47)”, for which the log2 fold change was -0.191.

Turning to “UniProt Q922V4 (peptide sequence: HSVHTLVFR, peptide start residue: 8)”, the log2 fold change is 0.271. With “UniProt Q921M3 (peptide sequence: GLLNGASQK, peptide start residue: 1080)”, the log2 fold change is -0.405.

For the target “UniProt Q921C3 (peptide sequence: VVVPEAPPGMFR, peptide start residue: 742)”, the log2 fold change is -0.387.

In the case of “UniProt Q921J2 (peptide sequence: IILEAEKIDGAASQGK, peptide start residue: 163)”, the log2 fold change is -0.133. With “UniProt Q99JN2 (peptide sequence: SLLHEQPR, peptide start residue: 596)”, the log2 fold change is -0.327. In the case of “UniProt Q925E7 (peptide sequence: VPILKPMDLMVEASPR, peptide start residue: 160)” it was 0.265; in that of “UniProt Q921X6 (peptide sequence: VKVQPPDADPVEIENR, peptide start residue: 6)”, 0.337. As to “UniProt Q921I0 (peptide sequence: MNVGVAHSEVNPNTR, peptide start residue: 1)”, the log2 fold change was determined as 0.00673. In the case of “UniProt Q925N0 (peptide sequence: TLFVTEKR, peptide start residue: 54)” it was -0.179; in that of “UniProt Q920F6 (peptide sequence: TFTRIIR, peptide start residue: 93)”, 0.0967. In the case of “UniProt Q99KU1 (peptide sequence: DQAAVTEQLLR, peptide start residue: 273)” it was 0.392; in that of “UniProt Q922L6 (peptide sequence: DYIMEPSIFNTLKR, peptide start residue: 56)”, 0.235; in that of “UniProt Q99L00 (peptide sequence: SAAAGACAVPK, peptide start residue: 12)”, 0.247. In the case of “UniProt Q922M7 (peptide sequence: LKPLAQIGSTSDAFWK, peptide start residue: 126)” it was 0.162; in that of “UniProt Q99JW2 (peptide sequence: LQANPHLK, peptide start residue: 237)”, -0.137.

For “UniProt Q924S8 (peptide sequence: KSDYLYHCGDETK, peptide start residue: 290)”, the log2 fold change was found to be 0.852. In the case of “UniProt Q922B1 (peptide sequence: LIICVFLEKDEGIYRER, peptide start residue: 299)” it was 0.437; in that of “UniProt Q99K51 (peptide sequence: HVIPMNPNTDDLFK, peptide start residue: 145)”, -0.611; in that of “UniProt Q99LH4 (peptide sequence: FCCLECGER, peptide start residue: 43)”, 0.101. With “UniProt Q921B4 (peptide sequence: SGSTPVTHGSSIK, peptide start residue: 459)”, the log2 fold change was -0.45. To “UniProt Q99JH7 (peptide sequence: AAVTEGK, peptide start residue: 152)” belongs 0.453; to “UniProt Q922R5 (peptide sequence: LNSVPSILR, peptide start residue: 658)”, -0.255. With “UniProt Q921N8 (peptide sequence: QMFGPQVLTTR, peptide start residue: 152)”, the log2 fold change was 0.166. “UniProt Q923Z3 (peptide sequence: EAGCVSSQR, peptide start residue: 491)”: the log2 fold change is 0.255. In the case of “UniProt Q99L13 (peptide sequence: ILNMSSGR, peptide start residue: 242)”, the log2 fold change is -0.16. To “UniProt Q99JR8 (peptide sequence: MADKVLPQR, peptide start residue: 140)” belongs -0.285; to “UniProt Q922K7 (peptide sequence: VLLDAPCSGTGVISKDPAVK, peptide start residue: 442)”, 0.262; to “UniProt Q99KS2 (peptide sequence: LAEGFDVSTDVIRR, peptide start residue: 107)”, 0.262. To “UniProt Q920E5 (peptide sequence: KQDAESLQR, peptide start residue: 76)” belongs -0.3; to “UniProt Q922D4 (peptide sequence: LGSFHELLLEPPKK, peptide start residue: 313)”, -0.324; to “UniProt Q99LG2 (peptide sequence: AHYQSFPPPVADFIK, peptide start residue: 76)”, 0.26. In the case of “UniProt Q924A0 (peptide sequence: VVAECTLK, peptide start residue: 345)” it was -0.246; in that of “UniProt Q99JT5 (peptide sequence: LCSEHSTIDPQVSHR, peptide start residue: 138)”, 0.217.

Values taken from the supplement of paper PMC12819154, “High-throughput peptide-centric local stability assay extends protein–ligand identification to membrane proteins, tissues and bacteria” (Nature Structural & Molecular Biology, 2025).
